{"source": "patent US9737487B2", "about": "“Cyclodextrin compositions encapsulating a selective ATP inhibitor and uses thereof” (The Johns Hopkins University, priority 2014, dated 2017)", "key": {"lucMiaPaCa-2 cells [1]": {"system": "lucMiaPaCa-2 cells", "assay": "Monolayer cell culture viability assay (CellTiter-Glo), normoxic or hypoxic, lucMiaPaCa-2", "assay_type": "cell-based, human", "conditions": "24 hrs. of treatment, read-out: cytotoxicity profile (concentration)", "procedure": "Two human pancreatic adenocarcinoma cell lines, lucMiaPaCa-2 (stably transfected with the luciferase-aminoglycoside phosphotransferase fusion gene, kindly provided by Dr. Phuoc T. Tran) and Suit-2 (kindly provided by Dr. Shinichi Ota, Japan) were cultured in RPMI or MEM media, respectively, both supplemented with 10% FBS and 1% Penicillin-Streptomycin. The effects of different drugs on cell viability were determined by quantifying intracellular adenosine triphosphate (ATP) levels using a luminescence-based kit (CellTiter-Glo, Promega) and a multilable 96-well plate (Costar). The accuracy and reproducibility of viability measurements using this luminiscence-based kit in lucMiaPaCa-2 cells was confirmed using the Dual-Reporter assay kit (Promega). In brief, 5×10^3 cells were seeded in triplicate and incubated for 72 hrs. under normoxic or hypoxic (1% O2-level, balanced with CO2 and nitrogen within a controlled atmosphere chamber) conditions. Indicated amounts of free 3-BrPA, 1:1-β-CD-3-BrPA or β-CD as a control were dissolved in PBS and added to the medium for 24 hrs. of treatment. For the experiments with gemcitabine, cells were incubated for 24 hrs. prior to a 72 hrs. exposure to the drug. Cell viability was determined following the manufacturer's protocol."}, "lucMiaPaCa-2 cells [2]": {"system": "lucMiaPaCa-2 cells", "assay": "3D organotypic cell culture (collagen 1 matrix), BLI quantification of viability", "assay_type": "cell-based, human", "conditions": "3D Collagen 1 matrix, normoxic, single dose, 24 hrs."}, "[3]": {"assay": "Clinical signs or symptoms in tumor-bearing animals treated with a high dose", "assay_type": "in vivo", "conditions": "tumor-bearing mice; dose >5 mg/kg body weight, ~3.5 mM"}}, "note": "For at least one compound, name, drawing or mass did not settle the structure. Some entries share one result that the patent states for a list of compounds."}
{"smiles": "O=C(O)C(=O)CBr", "note": "[3-BrPA, 3-bromopyruvate]", "values": [{"measurement": "IC50", "setting": "lucMiaPaCa-2 cells [1]; hypoxic (1% O2)", "result": "12.5 to 25", "unit": "µM"}, {"measurement": "IC50", "setting": "lucMiaPaCa-2 cells [1]; normoxic", "result": "50 to 75", "unit": "µM"}, {"measurement": "IC50", "setting": "lucMiaPaCa-2 cells [2]", "result": "25 to 50", "unit": "µM"}, {"measurement": "Abnormal Behavior (e.g., inactive/unresponsive)", "setting": "[3]", "result": "+++"}, {"measurement": "Hypothermia", "setting": "[3]", "result": "+++"}, {"measurement": "Salivation", "setting": "[3]", "result": "+++"}, {"measurement": "Seizures/Shiver/Spasms", "setting": "[3]", "result": "+++"}, {"measurement": "Shortness of Breath", "setting": "[3]", "result": "+++"}]}
